According to article doi:10.1101/2022.10.18.512811 (bioRxiv, 2022):

Molecular target: T1, CpxA (two-hybrid construct) (E. coli) (UniProt P0AE82)
T1 sequence: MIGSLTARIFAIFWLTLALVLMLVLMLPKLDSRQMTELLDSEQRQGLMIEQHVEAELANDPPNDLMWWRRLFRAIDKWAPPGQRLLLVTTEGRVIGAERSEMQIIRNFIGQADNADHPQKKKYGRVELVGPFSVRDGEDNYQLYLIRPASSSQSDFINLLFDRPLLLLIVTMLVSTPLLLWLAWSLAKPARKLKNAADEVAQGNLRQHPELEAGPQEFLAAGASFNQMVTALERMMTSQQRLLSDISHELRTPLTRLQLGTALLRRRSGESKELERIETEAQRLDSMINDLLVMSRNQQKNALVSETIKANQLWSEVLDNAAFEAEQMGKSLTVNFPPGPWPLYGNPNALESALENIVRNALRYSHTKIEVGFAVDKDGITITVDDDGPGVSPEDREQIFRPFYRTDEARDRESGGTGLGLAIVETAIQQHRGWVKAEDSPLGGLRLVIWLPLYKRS
Experiment: two-hybrid

For “NlpE C-terminal domain (two-hybrid construct) (E. coli) (domain or fragment)”, which binding is on record?
The binding was “no binding”.

Results are given in words; binding and its absence hold for the method and conditions named.
